PubChem BioAssay AID1224829, NIAID – 2016

- Assay: 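Follow-up of TLR4-NF-kappaB regulators using six separate siRNAs for each gene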 (follow-up of hits)
- Cell system: mouse RAW264.7 G9 macrophage reporter cells
- Knock-down reagent: single siRNA against mouse genes, 100 nM
- Time to read-out: 2 days of siRNA knock-down, then 40 min of LPS before fixing
- Conditions: LPS (Salmonella minnesota R595) at 10 ng/ml
- Read-out: 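High-content images after 40 min LPS exposure; GFP-p65 nucleus to surrounding ring signal ratio, normalised to plate median and non-targeting control wells, expressed as z-score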
- Direction: p65 translocation z-score: higher = more nuclear NF-kappaB p65 after LPS
- Active means: 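Active means the replicate-mean z-score lies beyond plus or minus 2, in either direction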
- Calls: active = changed p65 translocation (either direction); inactive = no clear change
The deposit covers about 3,800 reagents; below is an unselected part. 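Calls cover raised and lowered translocation; gene median uses one vendor's three siRNAs; qiagen siRNAs acted more weakly than ambion siRNAs.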 Unmarked entries are inactive. Reagents against one gene are numbered here. Further read-outs or replicates are left out here. No sequences are given here.

gene,siRNA no.,siRNA vendor or control pool,"p65 translocation z-score, replicate mean"
Slc5a7 (GeneID 63993),1,ambion single siRNA,0.336
Slc5a7 (GeneID 63993),2,ambion single siRNA,-5.75 (active)
Slc5a7 (GeneID 63993),3,ambion single siRNA,-2.83 (active)
Slc5a7 (GeneID 63993),4,qiagen single siRNA,2.81 (active)
Slc5a7 (GeneID 63993),5,qiagen single siRNA,0.896
Slc5a7 (GeneID 63993),6,qiagen single siRNA,-2.81 (active)
Rps4x (GeneID 20102),1,ambion single siRNA,2.88 (active)
Rps4x (GeneID 20102),2,ambion single siRNA,2.25 (active)
Rps4x (GeneID 20102),3,ambion single siRNA,-1.79
Rps4x (GeneID 20102),4,qiagen single siRNA,-0.36
Rps4x (GeneID 20102),5,qiagen single siRNA,-2.3 (active)
Rps4x (GeneID 20102),6,qiagen single siRNA,-0.534
Capns1 (GeneID 12336),1,ambion single siRNA,-1.79
Capns1 (GeneID 12336),2,ambion single siRNA,2.45 (active)
Capns1 (GeneID 12336),3,ambion single siRNA,-6.16 (active)
Capns1 (GeneID 12336),4,qiagen single siRNA,1.01
Capns1 (GeneID 12336),5,qiagen single siRNA,-0.671
Capns1 (GeneID 12336),6,qiagen single siRNA,-0.747
Cck (GeneID 12424),1,ambion single siRNA,-9.58 (active)
Cck (GeneID 12424),2,ambion single siRNA,-2.76 (active)
Cck (GeneID 12424),3,ambion single siRNA,-1.87
Cck (GeneID 12424),4,qiagen single siRNA,-0.974
Cck (GeneID 12424),5,qiagen single siRNA,-0.129
Cck (GeneID 12424),6,qiagen single siRNA,-2.9 (active)
Cldn6 (GeneID 54419),1,ambion single siRNA,-0.48
Cldn6 (GeneID 54419),2,ambion single siRNA,-3.39 (active)
Cldn6 (GeneID 54419),3,ambion single siRNA,-2.98 (active)
Cldn6 (GeneID 54419),4,qiagen single siRNA,1.44
Cldn6 (GeneID 54419),5,qiagen single siRNA,-1.43
Cldn6 (GeneID 54419),6,qiagen single siRNA,-2.42 (active)
Or4f7 (GeneID 258397),1,ambion single siRNA,-1.95
Or4f7 (GeneID 258397),2,ambion single siRNA,-1.57
Or4f7 (GeneID 258397),3,ambion single siRNA,-5.09 (active)
Or4f7 (GeneID 258397),4,qiagen single siRNA,0.454
Or4f7 (GeneID 258397),5,qiagen single siRNA,-1.69
Or4f7 (GeneID 258397),6,qiagen single siRNA,-0.361
Rpl11 (GeneID 67025),1,ambion single siRNA,-3.18 (active)
Rpl11 (GeneID 67025),2,ambion single siRNA,-1.49
Rpl11 (GeneID 67025),3,ambion single siRNA,-1.43
Rpl11 (GeneID 67025),4,qiagen single siRNA,-2.33 (active)
Rpl11 (GeneID 67025),5,qiagen single siRNA,-2.42 (active)
Rpl11 (GeneID 67025),6,qiagen single siRNA,-5.75 (active)
Zfp938 (GeneID 237411),1,ambion single siRNA,-1.45
Zfp938 (GeneID 237411),2,ambion single siRNA,0.334
Zfp938 (GeneID 237411),3,ambion single siRNA,-4.38 (active)
Zfp938 (GeneID 237411),4,qiagen single siRNA,1.87
Zfp938 (GeneID 237411),5,qiagen single siRNA,-0.257
Zfp938 (GeneID 237411),6,qiagen single siRNA,1.75
Taar5 (GeneID 215854),1,ambion single siRNA,0.243
Taar5 (GeneID 215854),2,ambion single siRNA,-0.318
Taar5 (GeneID 215854),3,ambion single siRNA,-1.68
Taar5 (GeneID 215854),4,qiagen single siRNA,-1.01
Taar5 (GeneID 215854),5,qiagen single siRNA,1.61
Taar5 (GeneID 215854),6,qiagen single siRNA,-1.72
